The record followed here is PMC4667618.

The chains behind the UniProt entries cited, without tags or fusion partners. Where a name states a change or a piece, a line headed by the entry shows the natural chain unless it says otherwise.
UniProt Q03267: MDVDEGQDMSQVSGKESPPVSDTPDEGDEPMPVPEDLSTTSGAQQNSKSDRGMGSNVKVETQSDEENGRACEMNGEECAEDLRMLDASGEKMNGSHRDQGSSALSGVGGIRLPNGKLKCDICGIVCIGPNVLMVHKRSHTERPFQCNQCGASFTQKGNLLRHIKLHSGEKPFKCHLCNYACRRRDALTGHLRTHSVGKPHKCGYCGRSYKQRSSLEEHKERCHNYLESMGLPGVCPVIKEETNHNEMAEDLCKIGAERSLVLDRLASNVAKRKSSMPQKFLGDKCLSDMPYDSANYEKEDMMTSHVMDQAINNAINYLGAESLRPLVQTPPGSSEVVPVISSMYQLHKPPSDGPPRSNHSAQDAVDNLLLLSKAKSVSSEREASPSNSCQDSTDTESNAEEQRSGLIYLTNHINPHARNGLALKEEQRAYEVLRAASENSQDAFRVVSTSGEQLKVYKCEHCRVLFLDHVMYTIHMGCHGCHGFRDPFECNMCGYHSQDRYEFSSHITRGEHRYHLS
UniProt Q61188: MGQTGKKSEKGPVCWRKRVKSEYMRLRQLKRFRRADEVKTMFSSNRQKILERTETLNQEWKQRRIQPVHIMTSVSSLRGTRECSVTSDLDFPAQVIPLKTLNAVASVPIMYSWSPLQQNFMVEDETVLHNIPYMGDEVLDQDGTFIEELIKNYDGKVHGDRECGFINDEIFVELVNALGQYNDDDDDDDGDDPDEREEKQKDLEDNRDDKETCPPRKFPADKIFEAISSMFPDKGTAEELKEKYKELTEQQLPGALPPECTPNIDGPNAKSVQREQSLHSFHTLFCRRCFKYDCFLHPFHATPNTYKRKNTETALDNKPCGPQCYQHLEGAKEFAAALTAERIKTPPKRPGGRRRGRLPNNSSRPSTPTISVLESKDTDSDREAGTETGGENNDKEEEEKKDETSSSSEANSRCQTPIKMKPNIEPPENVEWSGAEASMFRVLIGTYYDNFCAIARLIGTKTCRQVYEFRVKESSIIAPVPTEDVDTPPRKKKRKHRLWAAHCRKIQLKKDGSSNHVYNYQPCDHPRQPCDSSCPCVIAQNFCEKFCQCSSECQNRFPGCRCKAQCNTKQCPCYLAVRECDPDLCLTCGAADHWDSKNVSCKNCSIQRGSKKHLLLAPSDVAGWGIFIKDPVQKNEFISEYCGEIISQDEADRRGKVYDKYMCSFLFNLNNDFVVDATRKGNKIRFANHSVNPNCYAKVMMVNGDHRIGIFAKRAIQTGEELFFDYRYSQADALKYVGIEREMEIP

What all share (experiment): co-IP; nuclear extracts (RIPA buffer) of ILC87-Ik1-Bcl2 cells, or of ILC87-Bcl2 cells expressing Ikaros deletion mutants; IP with anti-Ikaros, anti-Suz12, anti-Ezh2 or IgG overnight at 4 °C; washed 5x with RIPA containing 300 mM NaCl; western blotting
For experiment [1], the target named is Ikaros ΔN (Ik1 lacking the amino-terminal domain, aa1–114) (UniProt Q03267).
In experiment [2] the target is Ikaros ΔDIM (Ik1 lacking the dimerization domain, aa457–508) (UniProt Q03267).
For experiment [3], the target named is Ikaros ΔDBD (Ik1 lacking the DNA-binding domain, aa119–223) (UniProt Q03267).

Results are given in words; binding and its absence hold for the method and conditions named. Binding seen in cells or lysates may run through a third protein. For part of these data: Binding can be weak; no strength is given.

Ezh2 (from UniProt Q61188 1-746): the binding result in experiment [1] is reported as “binds”; in experiment [2], “no binding”; in experiment [3] it was “binds”.
